Laboratory results taken from publication PMC5813027.
These are yes or no findings as the source states them, for the method shown. Binding seen in cells or lysates may run through a third protein. A result given as binding can be weak or reduced; the word gives no strength.

Molecular target: T1, endogenous CCDC28B (human (endogenous in Hek293)) (UniProt Q9BUN5)
T1 sequence: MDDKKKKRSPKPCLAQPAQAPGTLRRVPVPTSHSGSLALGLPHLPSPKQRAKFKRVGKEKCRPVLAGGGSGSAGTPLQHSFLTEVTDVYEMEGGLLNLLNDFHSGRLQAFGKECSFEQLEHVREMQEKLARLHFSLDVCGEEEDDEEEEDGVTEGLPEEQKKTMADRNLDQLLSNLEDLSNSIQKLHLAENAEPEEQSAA
Experiment: co-IP; non-transfected cells; endogenous CCDC28B precipitated with biotinylated anti-CCDC28B VHH on Streptavidin-Agarose; western blots for KIF5B, KLC1, α-tubulin and CCDC28B

binding: binds
Substance: α/β-tubulin (human (endogenous in Hek293)) (complex)
